Measurements reported in PubChem BioAssay AID1224826 (NIAID, 2016)

Assay: 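Genes that change LPS-induced Tnf promoter activity in mouse macrophages when knocked down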 (primary screen)
System: RAW264.7 G9 macrophages from mouse bearing reporters for p65 (GFP) and the Tnf promoter (mCherry)
Knock-down reagent: siRNA pool against mouse genes, 100 nM
Duration: 16 h of LPS stimulation, after 2 days of siRNA transfection
Conditions: bacterial lipopolysaccharide (Salmonella minnesota R595), 10 ng/ml
Measurement: 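Imaged Tnf reporter mCherry in nuclei, minus background, normalised per plate to the median and expressed as robust z-scores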
Reading the numbers: Tnf reporter robust z-score: higher = stronger Tnf promoter reporter signal after LPS
Active means: 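Called active when robust z-score is at most -1.3, matching the median of the Tlr4 knock-down control, or over 3; control wells and wells with under 50 cells never active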
Calls: active = Tnf reporter clearly lowered or raised; inactive = no clear change in Tnf reporter
In all, the deposit lists about 17,000 reagents; this is a part drawn at random. In the full data, about 1,110 (6.6%) were called active. 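Active means lowered or raised reporter signal; replicate intensities are raw and not normalised per plate.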 Unmarked entries are inactive. Not all columns of the deposit are shown.

The opening 2 records, to show the layout:
H1f4 (H1.4 linker histone, cluster member)
- Tnf reporter robust z-score: 0.5
- fewer than 50 cells in well: enough cells in well

Zg16 (zymogen granule protein 16)
- Tnf reporter robust z-score: -0.28
- fewer than 50 cells in well: enough cells in well

The list itself, repeating the preview:
H1f4 (H1.4 linker histone, cluster member)
- Tnf reporter robust z-score: 0.5
- fewer than 50 cells in well: enough cells in well

Zg16 (zymogen granule protein 16)
- Tnf reporter robust z-score: -0.28
- fewer than 50 cells in well: enough cells in well

Or10a4 (olfactory receptor family 10 subfamily A member 4)
- Tnf reporter robust z-score: 1.92
- fewer than 50 cells in well: enough cells in well

Mbd2 (methyl-CpG binding domain protein 2)
- Tnf reporter robust z-score: -1.67 (active)
- fewer than 50 cells in well: enough cells in well

Golga2 (golgin A2)
- Tnf reporter robust z-score: 1.29
- fewer than 50 cells in well: enough cells in well

Or5d46 (olfactory receptor family 5 subfamily D member 46)
- Tnf reporter robust z-score: 0.39
- fewer than 50 cells in well: enough cells in well

Ccdc136 (coiled-coil domain containing 136)
- Tnf reporter robust z-score: 0.57
- fewer than 50 cells in well: enough cells in well

Chd1 (chromodomain helicase DNA binding protein 1)
- Tnf reporter robust z-score: 0.66
- fewer than 50 cells in well: enough cells in well

Tbc1d7 (TBC1 domain family, member 7)
- fewer than 50 cells in well: fewer than 50 cells per well; well left out of calls

Mtor (mechanistic target of rapamycin kinase)
- fewer than 50 cells in well: fewer than 50 cells per well; well left out of calls

Haus7 (HAUS augmin-like complex, subunit 7)
- Tnf reporter robust z-score: 0.9
- fewer than 50 cells in well: enough cells in well

Idh3g (isocitrate dehydrogenase 3 (NAD+), gamma)
- Tnf reporter robust z-score: -1.16
- fewer than 50 cells in well: enough cells in well

Tmed9 (transmembrane p24 trafficking protein 9)
- fewer than 50 cells in well: fewer than 50 cells per well; well left out of calls

Ddx5 (DEAD box helicase 5)
- fewer than 50 cells in well: fewer than 50 cells per well; well left out of calls
